Measured values: PubChem BioAssay AID1487 (National Center for Advancing Translational Sciences (NCATS), 2009)
The list shows a part of the results. Shown are side measurements of this screen, not its main read-out; they come without a call. Compounds called inactive in the main read-out are mostly missing here. Potencies come from curve fits of mixed quality, noted in brackets.

Assay: qHTS Assay for Modulators of Lamin A Splicing
Conditions: HeLa LMNA splicing GFP/RFP minigene ratio, 48 h
Method in brief: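 Read-out is the ratio of GFP to DsRed2 object intensity, acquired by 488 nm laser-scanning cytometry on HeLa lamin A-EGFP minigene reporter cells. Compound incubation 48 hrs at 37 °C in Opti-MEM with 2% FBS; DMSO 0.5% final.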

[1] = measured here: GFP splicing reporter channel
[2] = measured here: RFP viability control channel

SMILES | AC50 [1] | AC50 [2]
CC(OC(=O)C1CCCCC1)c1nc2ccccc2[nH]1 (stereo not drawn) | 11.2 µM [rising, single point] | 12.6 µM [rising, partial curve]
COc1cccc(-c2nc(NCCc3c[nH]c4ccc(OC)cc34)c3ccccc3n2)c1 | 22.4 µM [falling, single point] | 22.4 µM [falling, single point]
O=C(Nc1ccc(Cl)cc1Cl)c1cc(S(=O)(=O)N2CCC3(CC2)OCCO3)ccc1F | – | 14.1 µM [rising, single point]
O=C(Cc1ccccc1F)Nc1ccccc1-c1ccccc1 | – | 39.8 µM [falling, partial curve, poor fit]
CN(C)S(=O)(=O)c1ccc(NC(=O)COC(=O)CC2CC3CCC2C3)cc1 (stereo not drawn) | 0.00447 µM [falling, full curve, poor fit] | –
CN(C)C=Nc1ncc2c([nH]c3ccccc32)c1C#N | 6.31 µM [rising, partial curve, poor fit] | 3.55 µM [rising, partial curve, poor fit]
COc1ccc(-c2nnc(SCc3ncc(-c4ccccc4)o3)o2)cc1 | 35.5 µM [rising, single point] | 35.5 µM [rising, single point]
CCCOC(=O)Oc1ccc2c(=O)c(Oc3cc(C)cc(C)c3)coc2c1 | – | 10 µM [rising, single point]
O=C1C2CC=CCC2C(=O)N1c1ccc(NCCc2ccc(O)cc2)c([N+](=O)[O-])c1 (stereo not drawn) | 5.62 µM [rising, partial curve, poor fit] | 11.2 µM [rising, partial curve]
Cc1ccc(-c2csc3ncnc(Oc4ccc5c(C)cc(=O)oc5c4)c23)cc1 | 7.94 µM [rising, partial curve, poor fit] | 7.94 µM [rising, partial curve]
O=C(CN1C(=O)c2ccccc2C1=O)NCCc1c[nH]c2ccc(Cl)cc12 | – | 2.51 µM [falling, partial curve, poor fit]
Cn1nc(C(F)(F)F)c2cc(NC(=O)OCc3ccc(C(C)(C)C)cc3)sc21 | 15.8 µM [rising, single point] | 20 µM [rising, single point]
CCOC(=O)c1cc(CC)sc1NC(=O)Cc1ccsc1 | 22.4 µM [rising, single point] | 15.8 µM [rising, single point]
CCOc1cc(-c2nnc(SCC(=O)NCc3ccccc3)nc2-c2ccc(OC)c(OCC)c2)ccc1OC | 0.158 µM [falling, full curve, poor fit] | –
COc1ccc(C(=O)C(Cc2cc(C(C)=O)ccc2OC)N2CCCC2)cc1 (stereo not drawn) | – | 11.2 µM [rising, partial curve, poor fit]
N#Cc1c(N)nc2c(c1-c1ccncc1)CCCC2 | 14.1 µM [rising, single point] | –
O=C1C(Nc2ccccc2)=C(NS(=O)(=O)c2ccccc2)C(=O)c2ccccc21 | – | 0.251 µM [rising, partial curve]

SMILES | AC50 [1] | AC50 [2]
O=C(CSc1nc2ccc([N+](=O)[O-])cc2[nH]1)c1ccc2ccccc2c1 | – | 12.6 µM [falling, partial curve]
CCc1ccc(NC(=O)C2CCCN(S(=O)(=O)c3ccc4c(c3)CCCN4C(C)=O)C2)cc1 (stereo not drawn) | 12.6 µM [falling, partial curve] | 0.562 µM [falling, partial curve, poor fit]
N#CCC(N)=C(C#N)C#N | – | 0.0708 µM [falling, full curve]
CCOc1ccccc1C(=O)N(CN1CCCC1=O)c1ccc(C)c(Cl)c1 | 10 µM [rising, partial curve] | 12.6 µM [rising, partial curve]
CC/C(=N\Nc1ccccc1[N+](=O)[O-])c1ccc(O)cc1 | 3.55 µM [falling, single point] | 8.91 µM [falling, single point]
O=C(CSc1nc2ccccc2o1)N1CCN(S(=O)(=O)c2ccc3ccccc3c2)CC1 | – | 12.6 µM [rising, partial curve]
COc1ccc(CCNC(=O)c2ccc(CSc3ccccc3)o2)cc1 | – | 0.0708 µM [falling, partial curve, poor fit]
C#CC[N+]1(CC#Cc2ccc(C)cc2)CCCCC1 | – | 31.6 µM [rising, single point]
O=C(c1ccc(S(=O)(=O)N2CCOCC2)cc1)N1CCN(c2cccc(Cl)c2)CC1 | – | 22.4 µM [rising, single point]
CCCNC(=O)C(=O)NCC(c1ccc2c(c1)OCO2)N1CCOCC1 (stereo not drawn) | 6.31 µM [rising, partial curve, poor fit] | –
CCOc1ccc(NC(=S)N(CCN2CCOCC2)Cc2cc3cc4c(cc3[nH]c2=O)OCO4)cc1 | 35.5 µM [falling, single point] | –
CCN(CC)CCOC(=O)C1(C2CCCCC2)CCCCC1 | 0.0708 µM [falling, full curve, poor fit] | 0.0708 µM [falling, full curve, poor fit]
CCCCOCCOCCOCc1cc2c(cc1CCC)OCO2 | 35.5 µM [falling, single point] | 0.0355 µM [rising, full curve, poor fit]
Cc1ccccc1-n1nc(CSc2nc3ccccc3[nH]2)c(-c2ccccc2)c1N | – | 20 µM [rising, partial curve, poor fit]
COc1ccc(Oc2cn[nH]c2-c2ccc(O)cc2O)cc1 | 15.8 µM [rising, single point] | 17.8 µM [rising, partial curve]
Cc1ccc(NS(=O)(=O)c2ccc(C)c(NC(=O)COc3ccccc3)c2)c(C)c1 | – | 12.6 µM [rising, partial curve, poor fit]
CC1=C(C(=O)N2CCOCC2)C(c2ccc(Cl)cc2)NC(=S)N1 (stereo not drawn) | 1.26 µM [rising, full curve, poor fit] | –

2 entries from above, tab-delimited:
SMILES	AC50 [1]	AC50 [2]
CCOc1ccccc1C(=O)N(CN1CCCC1=O)c1ccc(C)c(Cl)c1	10 µM [rising, partial curve]	12.6 µM [rising, partial curve]
O=C(CSc1nc2ccccc2o1)N1CCN(S(=O)(=O)c2ccc3ccccc3c2)CC1	–	12.6 µM [rising, partial curve]
